{"source": "patent EP1094830B1", "about": "“USE OF COMPOSITION COMPRISING AT LEAST ONE SUBSTANCE WITHIN THE GROUP GnRH-ANALOGUES FOR TREATMENT OF OBSESSIVE-COMPULSIVE DISORDER (OCD)” (Läkartjänster I Västsverige AB, priority 1998, dated 2005)", "key": {"OCD-symptoms": {"tested_on": "OCD-symptoms", "experiment": "Case study: treatment of a patient with a severe form of OCD", "assay_type": "in vivo, man", "conditions": "earlier treatment of the same patient(s) with anti-androgenic drugs, before the GnRH-analogue", "procedure": "The GnRH-analogue triptorelin is available in a pharmaceutical preparation (Decapeptyl® Depot). In the use of this preparation, an injection is administered containing triptorelin embonate in a dose corresponding to 3.75 mg triptorelin. Injections with this dose are given intramuscularly. They should be repeated every fourth week from the first injection. […] A then person was referred to a psychiatric specialist clinic from another qualified psychiatrist for evaluation and treatment of a severe condition of OCD. […] The situation when the patient came to the clinic was that they had sickness pension since more than ten years. They lived alone in a small apartment which they hardly ever left. Obsessions and compulsive rituals occupied most of their time. They repeated against their will meaningless strings of words silently during several hours every day. They felt they had to read the newspaper according to certain ritual patterns; if they did anything wrong, they had to start again from the beginning. Sometimes, it took them the whole day to read the newspaper. […] Among other things, they placed their books so that the covers were strictly oriented along north-south lines. Their contacts with other persons were highly restraint and mainly limited to some relatives. […] The clinical diagnosis was that they suffered from a very serious form of OCD. […]"}, "[1]": {"tested_on": "symptoms of androgenic hyperactivity", "experiment": "Case study: treatment of the patient's symptoms of androgenic hyperactivity", "assay_type": "in vivo, man", "conditions": "same patient, before triptorelin", "procedure": "An endocrinological investigation was performed, based upon their symptoms of androgenic hyperactivity."}}, "note": "At least one structure is not confirmed: it was looked up by name or label, or the drawing left a doubt."}
{"smiles": "CC(C)C(=O)Nc1ccc([N+](=O)[O-])c(C(F)(F)F)c1", "note": "[flutamide]", "values": [{"measurement": "effect on OCD", "setting": "OCD-symptoms", "result": "without any obvious effect on their OCD"}, {"measurement": "effect on symptoms of androgenic hyperactivity", "setting": "[1]", "result": "without any significant effects"}]}
